Assay results published in PubChem BioAssay AID504834 (National Center for Advancing Translational Sciences (NCATS), 2011).
Among all 320,000 compounds or so, about 22,000 (6.9%) were called active. Inconclusive means that the source gave no clear call. Such entries were picked first, then a sample of the others. Calls come from the whole dose curve; as a rule, active = well fitted inhibition curve with a large enough effect; inconclusive = small, poorly fitted or top-dose-only effect, or another doubt; inactive = no such curve, though single readings can be large or run the other way. Potencies of inconclusive entries are doubtful fits and often do not repeat.

assay: Primary qHTS for delayed death inhibitors of the malarial parasite plastid, 96 hour incubation; details: P. falciparum luciferase reporter growth; series mostly up to 28.7 µM; activity change, negative = inhibition: at the top concentration
Procedure, shortened: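 Parasite growth measured via integrated firefly luciferase reporter in P. falciparum. Infected erythrocytes at 2% hematocrit, 0.05% parasitemia final were treated 96 hours at 37 C under 5% CO2, and luminescence was read.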
% is set by controls: 0 for no effect and ±100 for the full control effect; potency is the fitted concentration of half-maximal effect.

**Q.** With Cn1cncc1C#Cc1ccc2cc(CCCO)oc(=O)c2c1 as the compound, how does the Potency read?
**A.** inconclusive: 18.5 µM [inhibitor, single point]

**Q.** Which “activity change, negative = inhibition” value does the source give for CN(C(=O)c1ccc(NC(=O)Cc2ccc(NC(=O)C3CCN(C(=O)C4CC4)CC3)cc2)cc1)C1CC1 here?
**A.** inactive: 0.297%

**Q.** For O=[N+]([O-])c1cccc(-c2nnc3ccc4ccccc4n23)c1, which Potency is on record?
**A.** inconclusive: 16.5 µM [inhibitor, single point]

**Q.** Which Potency does the source give for COc1cc(C2C(C(=O)c3cc4ccccc4o3)=C(O)C(=O)N2c2cc(C)on2)cc(OC)c1OC (configuration not stated) here?
**A.** inconclusive: 11.7 µM [inhibitor, single point]

**Q.** With COc1ccc(C(=O)C2CCCN(Cc3cc(C)c(O)c(C)c3)C2)c(OC)c1 (configuration not stated) as the compound, how does the Potency read?
**A.** inconclusive: 18.5 µM [inhibitor, single point]

**Q.** With O=C(NC(=S)Nc1ccccc1F)C1CCCCC1 as the compound, how does the Potency read?
**A.** inconclusive: 18.5 µM [inhibitor, single point]

**Q.** With COc1cc(/C=c2\s/c(=C\C(=O)C(C)(C)C)[nH]c2=O)cc(OC)c1OC as the compound, how does the Potency read?
**A.** inconclusive: 1.85 µM [inhibitor, full curve, poor fit]

**Q.** For Cc1cc(NC(=O)CSC2=Nc3ccccc3C3=NC(Cc4ccccc4)C(=O)N23)n[nH]1 (configuration not stated), which Potency is on record?
**A.** inconclusive: 2.33 µM [inhibitor, single point]

**Q.** For Cc1ccccc1NC(=S)N(CCCN1CCC(C)CC1)Cc1ccco1, which Potency is on record?
**A.** active: 13.1 µM

**Q.** Which “activity change, negative = inhibition” value does the source give for CCC(C)NC(=O)c1cc(-c2ccc3c(c2)OCO3)on1 (configuration not stated) here?
**A.** inactive: -0.0033%

**Q.** For CCOc1ccc(-n2c(-c3ccc(Br)cc3)c[n+]3c2CCCCC3)cc1, which Potency is on record?
**A.** inconclusive: 0.208 µM [inhibitor, full curve, poor fit]

**Q.** For COC(=O)c1c(N)sc(C(=O)N2CCOCC2)c1C, which Potency is on record?
**A.** inconclusive: 8.28 µM [inhibitor, partial curve, poor fit]

**Q.** Which Potency does the source give for CC(C)CC(=O)Nc1nnc(CSCc2ccc(F)cc2)s1 here?
**A.** inconclusive: 0.415 µM [inhibitor, full curve, poor fit]

**Q.** Which Potency does the source give for O=C(c1ccc(Cl)c(S(=O)(=O)N2CCCCCC2)c1)N1CCN(c2ccccn2)CC1 here?
**A.** inconclusive: 13.1 µM [inhibitor, partial curve, poor fit]

**Q.** Which “activity change, negative = inhibition” value does the source give for C=CCSc1nc2sc3c(c2c(=O)[nH]1)CC(C)(CC)OC3 (configuration not stated) here?
**A.** inactive: 16.7%

**Q.** With COc1ccc(NC(=O)CSc2nc(=O)n(CCN(C)C)c3c2CCCC3)cc1OC as the compound, how does the Potency read?
**A.** inconclusive: 18.5 µM [inhibitor, partial curve, poor fit]

**Q.** For Cc1cccc(N2CCN(C(=O)c3cnn4c(C(F)F)cc(-c5ccccc5)nc34)CC2)c1C, which “activity change, negative = inhibition” value is on record?
**A.** inactive: -5%

**Q.** With CC(C(=O)N1CCCCC1)n1sc2ccccc2c1=O (configuration not stated) as the compound, how does the “activity change, negative = inhibition” value read?
**A.** inactive: -0.421%

**Q.** For COc1cccc(CN2CCC(C(=O)N3CCN(Cc4ccc5c(c4)OCO5)CC3)CC2)c1OC, which “activity change, negative = inhibition” value is on record?
**A.** inactive: 0.316%

**Q.** For CC1CCN(C(=O)Cn2c3ccccc3c3nc4n(c(=O)c32)CCCS4)CC1, which “activity change, negative = inhibition” value is on record?
**A.** inactive: 6.31%

**Q.** For N=C1/C(=C/c2cccs2)C(=O)N=C2SN=C(SCc3ccccc3)N12, which Potency is on record?
**A.** inconclusive: 0.0738 µM [inhibitor, full curve, poor fit]

**Q.** Which Potency does the source give for CN(C)CCCN(Cc1cc2cc3c(cc2[nH]c1=O)OCCO3)C(=O)NC1CCCCC1 here?
**A.** inconclusive: 2.94 µM [inhibitor, partial curve, poor fit]

**Q.** For COC(=O)CCCC1=CC2=CC(=O)C(C)(OC(=O)c3cccs3)C(=O)C2=CN1CCN1CCOCC1 (configuration not stated), which Potency is on record?
**A.** inconclusive: 18.5 µM [inhibitor, single point]

**Q.** For Cc1c(CCOC(=O)C2C3CC4CC(C3)CC2C4)sc[n+]1CC(=O)c1ccc(Br)cc1 (configuration not stated), which Potency is on record?
**A.** inconclusive: 11.7 µM [inhibitor, single point]

**Q.** With CCCn1c2ccccc2c2nnc(SCC(=O)OC)nc21 as the compound, how does the “activity change, negative = inhibition” value read?
**A.** inactive: 7.65%

**Q.** Which Potency does the source give for CCOC(=O)c1cc(C(=O)OCC)c(=O)[nH]c1N1CCCCC1 here?
**A.** inconclusive: 0.0522 µM [inhibitor, full curve, poor fit]

**Q.** With Cc1cc(C(=O)O/N=C(\N)c2ccc(C(C)(C)C)cc2)no1 as the compound, how does the “activity change, negative = inhibition” value read?
**A.** inactive: 463%

**Q.** Which Potency does the source give for COc1ccc(NC(=O)Cn2cc(S(=O)(=O)Cc3ccccc3)c3ccccc32)c(OC)c1 here?
**A.** inconclusive: 10.4 µM [inhibitor, single point]

**Q.** Which Potency does the source give for CC1(C)CC(=O)C(C2=NC3(CCCCC3)Cc3ccccc32)=C(O)C1 here?
**A.** inconclusive: 18.5 µM [inhibitor, single point]

**Q.** For Cc1ccccc1CSc1nccn1-c1ccccc1, which Potency is on record?
**A.** inconclusive: 14.7 µM [inhibitor, single point]

**Q.** With CCCOc1ccc(CSc2ncn[nH]2)cc1 as the compound, how does the Potency read?
**A.** inconclusive: 9.28 µM [inhibitor, partial curve, poor fit]

**Q.** Which Potency does the source give for Cn1c(-c2cccc([N+](=O)[O-])c2)cnc1NCc1cccc(F)c1 here?
**A.** active: 4.65 µM

**Q.** Which “activity change, negative = inhibition” value does the source give for CCOC(=O)c1c(C)[nH]c(C(=O)CN2CCN(CC)CC2)c1C here?
**A.** inactive: 57.5%

**Q.** Which Potency does the source give for Cn1c(=O)c2c(nc(CN3CCN(c4ccc(F)cc4)CC3)n2CCN2CCOCC2)n(C)c1=O here?
**A.** inconclusive: 8.28 µM [inhibitor, single point]

**Q.** For CCn1cc(C(=O)N[C@@H](C)C(=O)NCCO)c(=O)c2cc3c(cc21)OCO3, which “activity change, negative = inhibition” value is on record?
**A.** inactive: 39.3%

**Q.** For O=C(c1cc2cc(Cl)ccc2[nH]1)N1CCN(Cc2ccc3c(c2)OCO3)CC1, which Potency is on record?
**A.** inconclusive: 18.5 µM [inhibitor, single point]

**Q.** For Cc1ccc(N2CC(C(=O)NCc3n[nH]c(=O)c4ccccc34)CC2=O)cc1C (configuration not stated), which Potency is on record?
**A.** inconclusive: 2.62 µM [inhibitor, single point]

**Q.** Which “activity change, negative = inhibition” value does the source give for O=C(CN(C(=O)c1csnn1)c1cccc2ccccc12)NCc1ccc(F)cc1 here?
**A.** inactive: 7.65%

**Q.** With CC(=O)C1=C(C)N(Cc2ccccc2)C(=O)N[C@H]1c1cccc(C(F)(F)F)c1 as the compound, how does the Potency read?
**A.** inconclusive: 11.7 µM [inhibitor, partial curve, poor fit]

**Q.** For CC(NS(C)(=O)=O)C(c1cccs1)N1CCN(c2ccc(F)cc2)CC1 (configuration not stated), which Potency is on record?
**A.** inconclusive: 18.5 µM [inhibitor, single point]

**Q.** For O=CN(Cc1ccco1)C1(C(=O)NC2CCCCC2)CCCCC1, which “activity change, negative = inhibition” value is on record?
**A.** inactive: -6.47%

**Q.** Which Potency does the source give for CC(C(=O)Nc1ccc([N+](=O)[O-])cc1Cl)N1CCN(S(=O)(=O)c2cccs2)CC1 (configuration not stated) here?
**A.** inconclusive: 16.5 µM [inhibitor, partial curve, poor fit]

**Q.** With COc1ccccc1CNS(=O)(=O)c1ccc2c(c1)CCCN2C(C)=O as the compound, how does the Potency read?
**A.** inconclusive: 13.1 µM [inhibitor, partial curve]

**Q.** For COc1cccc(C(=O)/C=C/Nc2ccc(S(=O)(=O)Nc3cccc(C(C)=O)c3)cc2)c1, which Potency is on record?
**A.** inconclusive: 0.415 µM [inhibitor, full curve, poor fit]

**Q.** For O=C(c1cc(C2CC2)nn1-c1ccccc1)N1CCN(Cc2ccc(Cl)cc2)CC1, which Potency is on record?
**A.** inconclusive: 16.5 µM [inhibitor, single point]

**Q.** With CCOC(=O)c1[nH]c(C)c(C(=O)NC2CCCCCC2)c1C as the compound, how does the Potency read?
**A.** active: 9.28 µM

**Q.** With COc1ccccc1NC(=O)NC1(C)CCS(=O)(=O)C1 (configuration not stated) as the compound, how does the Potency read?
**A.** inconclusive: 18.5 µM [inhibitor, single point]

**Q.** Which “activity change, negative = inhibition” value does the source give for CCN(CC(=O)Nc1ccc(C(=O)OC)cc1)C1CCCCC1 here?
**A.** inactive: -9.33%

**Q.** Which Potency does the source give for Cc1nn2c(N3CCN(c4ccccn4)CC3)cc(C(C)C)nc2c1-c1ccccc1 here?
**A.** inconclusive: 9.28 µM [inhibitor, single point]

**Q.** With Cc1ccc(NC(=O)C2CCCN2C(=O)OCc2ccccc2)cc1F (configuration not stated) as the compound, how does the Potency read?
**A.** inconclusive: 18.5 µM [inhibitor, single point]

**Q.** For COc1cccc(N(C(=O)CNC(=O)c2ccco2)C(C(=O)NC2CCCC2)c2ccco2)c1 (configuration not stated), which “activity change, negative = inhibition” value is on record?
**A.** inactive: -2.23%

**Q.** For Cc1cc(=O)[nH]c(-n2[nH]c(C)cc2=O)n1, which Potency is on record?
**A.** inconclusive: 0.738 µM [inhibitor, partial curve, poor fit]

**Q.** With COc1ccc(CCNC(=O)C(=O)c2c[nH]c3ccccc23)cc1OC as the compound, how does the Potency read?
**A.** inconclusive: 7.38 µM [inhibitor, partial curve, poor fit]

**Q.** Which Potency does the source give for O=c1[nH]c2ccccc2n1CCCN1CCCCC1 here?
**A.** inconclusive: 10.4 µM [inhibitor, single point]

**Q.** For Cc1ccccc1-n1ncc2c1CC(C)(C)CC2NC(=O)C1=CC(=O)CC(C)(C)O1 (configuration not stated), which Potency is on record?
**A.** active: 9.28 µM

**Q.** For O=C(O)c1ccc2c(c1)N(Cc1ccccc1)C(=O)c1ccccc1S2=O (configuration not stated), which Potency is on record?
**A.** inconclusive: 18.5 µM [inhibitor, single point]

**Q.** For CCCOc1ccc(CNC(=O)c2ccc3c(c2)N(CC)CCS3)cc1, which “activity change, negative = inhibition” value is on record?
**A.** inactive: 10.4%

**Q.** For CCn1cc(CN2CCC(Oc3ccc(C(=O)N4CCCCC4)cc3)CC2)cn1, which Potency is on record?
**A.** inconclusive: 11.7 µM [inhibitor, single point]

**Q.** With Cc1cc(C(=O)Nc2ccc(Cl)cc2)n(-c2ccccc2)n1 as the compound, how does the Potency read?
**A.** inconclusive: 0.465 µM [inhibitor, full curve, poor fit]

**Q.** For CCOc1nc(Nc2ccc(OC)c(Cl)c2)nc(N2CCN(c3ccc(OC)cc3)CC2)n1, which Potency is on record?
**A.** inconclusive: 13.1 µM [inhibitor, partial curve, poor fit]

**Q.** Which “activity change, negative = inhibition” value does the source give for CCOC(=O)c1oc2ccccc2c1NC(=O)c1cccs1 here?
**A.** inactive: 13.6%

**Q.** Which Potency does the source give for COc1ccc(-c2[nH]ncc2CN2CCCC(C(=O)c3ccc(OC)cc3OC)C2)cc1 (configuration not stated) here?
**A.** active: 0.828 µM

**Q.** With O=S(=O)(c1ccc2c(c1)CCCN2)N1CCCCC1 as the compound, how does the Potency read?
**A.** inconclusive: 18.5 µM [inhibitor, partial curve, poor fit]

**Q.** With CC(=O)Nc1ccc(-c2csc(NNC(=O)c3ccc(C)cc3)n2)cc1 as the compound, how does the “activity change, negative = inhibition” value read?
**A.** inactive: 13.9%

**Q.** With C=CCNC(=O)c1scc2c1CCCC2 as the compound, how does the “activity change, negative = inhibition” value read?
**A.** inactive: -5.83%

**Q.** With CC(=NC(C)c1ccccc1)c1c(O)[nH]c(=O)[nH]c1=O (configuration not stated) as the compound, how does the Potency read?
**A.** inconclusive: 0.0033 µM [inhibitor, full curve, poor fit]

**Q.** With S=c1[nH]nc(-c2ccc3ccccc3n2)n1-c1ccc2ncccc2c1 as the compound, how does the Potency read?
**A.** inconclusive: 1.47 µM [inhibitor, partial curve, poor fit]
